We go through one substance from PMC9426602, “The Native Orthobunyavirus Ribonucleoprotein Possesses a Helical Architecture” (mBio, 2022).

By UniProt entry, the sequences of proteins in these tests, tags left out.
UniProt P16495: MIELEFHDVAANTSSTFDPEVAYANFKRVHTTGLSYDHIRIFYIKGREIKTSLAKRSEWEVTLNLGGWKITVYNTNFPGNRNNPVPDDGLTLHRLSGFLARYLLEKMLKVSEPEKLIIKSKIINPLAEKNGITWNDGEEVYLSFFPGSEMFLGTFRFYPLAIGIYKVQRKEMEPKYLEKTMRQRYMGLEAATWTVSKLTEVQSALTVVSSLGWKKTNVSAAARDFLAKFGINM

These are yes or no findings as the source states them, for the method shown.

In the assay the target is Bunyamwera virus (BUNV) nucleocapsid protein (NP), as it stands in native ribonucleoproteins (RNPs) purified from virions (Bunyamwera virus) (UniProt P16495). Nature of the assay: condition: only after RNase A at 0.1 mg/mL or 1 mg/mL, 30 min at room temperature; negative staining EM; purified native RNPs in TNE treated with RNase A (0.1 mg/mL or 1 mg/mL) for 30 min at room temperature, then negative staining; both purified.

In the case of “Bunyamwera virus (BUNV) nucleocapsid protein (NP), as it stands in native ribonucleoproteins (RNPs) purified from virions (from UniProt P16495 1-233)”, the binding entry is given as “no binding”.
